According to patent publication US20190016809A1 (MONASH UNIVERSITY, published 2019):
Numbering of substitutions follows the chain as printed. Results are given in words; binding and its absence hold for the method and conditions named. Some binding calls cover weakened binding; strength is not graded here.

Sequences of proteins named here, by UniProt entry; tags and fusion partners are left off. Residues count along the entry.
UniProt P25025, residues 1-48: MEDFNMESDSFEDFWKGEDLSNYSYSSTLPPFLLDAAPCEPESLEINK

B1: m3H9 (antibody, mouse IgG3, V domains shown)
VH: QVQLQQSGPELVKPGASVKISCKASGYAFSNSWMNWVKQRPGKGLEWIGRIYPGDGNINYYGKFKDKATLTADKSSNTAYMQLSSLTSEDSAVYFCARSFLYVDFDYWGQGTTLTVSS
VL: VIVMTQTPLSLPVSLGDQASISCRSSQSLVHSNGNTYLQWYLQKPGQSPKLLIYKVSNRFSGVPDRFSGSGSGTDFTLKISRVEAEDLGVYFCSQGTHVPYTFGGGTKLEIKR
notes: also called mouse 3H9; purified mouse 3H9 mAb
B2: m6G7 (antibody, V domains shown)
VH: B1 VH
VL: B1 VL with V1D, I2V, T7A, S28T
notes: Mouse hybridoma monoclonal antibody
B3: mCM2 (antibody, V domains shown)
VH: B1 VH with D104Y
VL: B1 VL with V1D, I2A, V56L, S72A, G96S
notes: as for B2
B4: h3H9 (antibody, V domains shown)
VH: QVQLVQSGAEVKKPGASVKVSCKASGYAFSNSWMNWVRQAPGQRLEWIGRIYPGDGNINYYGKFKDKATLTADKSANTAYMELSSLRSEDTAVYFCARSFLYVDFDYWGQGTTLTVSS
VL: B1 VL with V1D, T7S, S14T, L15P, D17E, Q18P, K50Q, L88V, G105Q

What was measured:
[1] = molecular target: biotinylated peptide corresponding to the N-terminal region of human CXCR2 (human) (UniProt P25025); experiment: ELISA on biotinylated peptides
[2] = molecular target: human CXCR2 (human) (UniProt P25025); experiment: flow cytometry dose response on human CXCR2 L1.2 transfected cells
[3] = molecular target: human CXCR2 (human) (UniProt P25025); experiment: flow cytometry on CXCR2 expressing cells
[4] = molecular target: human CXCR2 (human) (UniProt P25025); experiment: flow cytometry, 1 ug purified antibody on transfected cells

Row | Binder | binding [1] | binding [2] | binding [3] | binding [4]
1 | B1 | binds | – | – | –
2 | B2 | binds | – | – | –
3 | B3 | binds | – | – | –
4 | B4 | – | binds | binds | binds
